This passage reports T/C and survivor count results from PubChem BioAssay AID248 (DTP/NCI, 2004).

The test system of this test is L1210 leukemia ip in BDF1 mice, survival T/C. Description: NCI In Vivo Anticancer Drug Screen. Data for tumor model L1210 Leukemia (intraperitoneal) in B6D2F1 (BDF1) mice. The conditions noted are these: higher T/C = longer survival.
The mark [1] stands for this setting: T/C endpoint: mean survival time, dose: 400.0 mg/kg/injection, schedule: Q04DX002 (ip), vehicle: saline.
Setting [2] is: T/C endpoint: mean survival time, dose: 400.0 mg/kg/injection, schedule: Q04DX003 (ip), vehicle: Klucel (hydroxypropylcellulose) (HPC).
Where [3] appears, read: T/C endpoint: mean survival time, dose: 200.0 mg/kg/injection, schedule: Q01DX009 (ip), vehicle: saline with Tween-80.
Setting [4] is: T/C endpoint: mean survival time, dose: 400.0 mg/kg/injection, schedule: Q04DX003 (ip), vehicle: saline with Tween-80.
[5] abbreviates: T/C endpoint: mean survival time, dose: 200.0 mg/kg/injection, schedule: Q04DX003 (ip), vehicle: saline.
[6] abbreviates: T/C endpoint: mean survival time, dose: 400.0 mg/kg/injection, schedule: Q04DX003 (ip), vehicle: saline.
Setting [7] is: T/C endpoint: mean survival time, dose: 400.0 mg/kg/injection, schedule: Q01DX001 (ip), vehicle: carboxymethylcellulose (CMC).
The mark [8] stands for this setting: T/C endpoint: mean survival time, dose: 400.0 mg/kg/injection, schedule: Q01DX001 (ip), vehicle: saline.
Setting [9] is: T/C endpoint: mean survival time, dose: 80.0 mg/kg/injection, schedule: Q01DX001 (ip), vehicle: saline.
Where [10] appears, read: T/C endpoint: mean survival time, dose: 100.0 mg/kg/injection, schedule: Q01DX001 (ip), vehicle: saline.
Where [11] appears, read: T/C endpoint: mean survival time, dose: 200.0 mg/kg/injection, schedule: Q01DX001 (ip), vehicle: saline.

Each structure is given as a SMILES string. The list does not hold the whole screen: it gathers tests that were run many times, whatever their T/C, doses with no T/C, and many T/C values between a quarter and a half above the control. Other doses and runs of a compound stand elsewhere. T/C: endpoint of the treated group in % of that of the vehicle group. Some doses have a count of surviving animals in place of a T/C: the source files T/C as zero there, which appears to mark a toxic dose or a test without result, not a measured value. Some doses without a T/C left all or most animals alive at the check, yet need not have been tolerated: survival well below the control is almost never listed, so the zero probably covers shortened survival too. Counts of survivors are from the toxicity check (mostly the fifth day) where no day follows; animals may have died later. Schedule codes are those of the source, taken here to give the interval after Q, in days (D) or hours (H), and the number of doses after X. Some schedules carry Z or #; the key to these is not given. Some structures stand for samples that the source files as different forms (salt, stereo form or complex); doses refer to the form tested. For survival time, the PubChem record calls one and a half times the control and up active, and a quarter to a half above the control has no call in these data; cut-offs in other NCI protocols can differ.

As for `CCCCCCC(C)OCC(=O)c1ccccc1` (stereo not given), the T/C under setting [1] was 126 % of control.

For `CC(=O)OC1(c2ccc(Cl)cc2)OC(=O)C(c2ccccc2)=C1Cc1ccccc1` (stereo not given), the survivor count is reported as 3 of 3 (T/C endpoint: mean survival time, dose: 50.0 mg/kg/injection, schedule: Q01DX009 (ip), vehicle: saline with Tween-80) and 3 of 3 (T/C endpoint: mean survival time, dose: 100.0 mg/kg/injection, schedule: Q01DX009 (ip), vehicle: saline with Tween-80).

In the case of `C[N+]1(CCCNC(=O)Nc2ccc(Cl)cc2)CCOCC1`, the survivor count (T/C endpoint: mean survival time, dose: 100.0 mg/kg/injection, schedule: Q04DX002 (ip), vehicle: saline) was 0 of 3; the survivor count (T/C endpoint: mean survival time, dose: 200.0 mg/kg/injection, schedule: Q04DX002 (ip), vehicle: saline) was 0 of 3; the survivor count under setting [1] is 1 of 3.

In the case of `COc1ccc(NC(=O)/C=N/O)c(Cl)c1`, the survivor count (T/C endpoint: mean survival time, dose: 100.0 mg/kg/injection, schedule: Q01DX001 (ip), vehicle: carboxymethylcellulose (CMC)) is 6 of 6.

Regarding `CC(C)=CCN(CC=C(C)C)CCC(C#N)(c1ccc2ccccc2c1)C(C)C` (stereo not given), the survivor count is recorded as 6 of 6 (T/C endpoint: mean survival time, dose: 200.0 mg/kg/injection, schedule: Q01DX009 (ip), vehicle: Klucel (hydroxypropylcellulose) (HPC)) and 6 of 6 under setting [2].

`c1cc2cc3c(cc2cc1CC1=NCCc2cc4c(cc21)OCO4)OCO3`: the survivor count (T/C endpoint: mean survival time, dose: 100.0 mg/kg/injection, schedule: Q01DX009 (ip), vehicle: other) was 5 of 6.

Consider `CC(=O)CC(=O)Nc1cccc(O)c1`, for which the survivor count (T/C endpoint: mean survival time, dose: 100.0 mg/kg/injection, schedule: Q01DX009 (ip), vehicle: Klucel (hydroxypropylcellulose) (HPC)) is listed as 6 of 6.

Consider `CCOC(=O)N/N=C\c1cc(OC)c(OC)c(OC)c1`, for which the survivor count is reported as 3 of 6 under setting [3] and 6 of 6 under setting [4].

As to `CC(=O)Nc1ccc(CCCCc2cccc(C(=N)N)c2)cc1`, the survivor count is, setting by setting: (T/C endpoint: mean survival time, dose: 75.0 mg/kg/injection, schedule: Q01DX009 (ip), vehicle: Klucel (hydroxypropylcellulose) (HPC)) 0 of 6; (T/C endpoint: mean survival time, dose: 115.0 mg/kg/injection, schedule: Q01DX009 (ip), vehicle: Klucel (hydroxypropylcellulose) (HPC)) 0 of 6; (T/C endpoint: mean survival time, dose: 170.0 mg/kg/injection, schedule: Q01DX009 (ip), vehicle: Klucel (hydroxypropylcellulose) (HPC)) 0 of 6.

On to `O=C1C=CC(=C(Br)Br)O1`, for which the survivor count (T/C endpoint: mean survival time, dose: 50.0 mg/kg/injection, schedule: Q04DX003 (ip), vehicle: saline with Tween-80) was 3 of 3; the survivor count under setting [5] was 0 of 3; the survivor count under setting [6] is given as 0 of 3.

In the case of `O=Cc1nccn1Cc1ccccc1`, the survivor count under setting [3] is recorded as 3 of 6 and the survivor count (T/C endpoint: mean survival time, dose: 400.0 mg/kg/injection, schedule: Q01DX009 (ip), vehicle: saline with Tween-80) is on record as 0 of 6.

For `ClCN(CCl)CCl`, the survivor count under setting [7] was 0 of 4.

On to `O=S(=O)(Oc1cccc(C(F)(F)F)c1)c1cccc(C(F)(F)F)c1`, for which the survivor count is 5 of 6 (T/C endpoint: mean survival time, dose: 100.0 mg/kg/injection, schedule: Q04DX003 (ip), vehicle: Klucel (hydroxypropylcellulose) (HPC)) and 6 of 6 under setting [2].

Turning to `O=C(O)c1ccc(OCCOc2ccccc2)cc1`, under “T/C endpoint: mean survival time, dose: 100.0 mg/kg/injection, schedule: Q04DX003 (ip), vehicle: saline sonified”, the T/C is 127 % of control.

Take `CCCCSP(SCCCC)N1CCCCC1`: the survivor count under setting [6] is given as 4 of 6.

Regarding `CN(CCC[N+](C)(C)C)C(=O)C(c1ccccc1)c1ccccc1`, the survivor count by setting is: under setting [5], 2 of 6; under setting [6], 0 of 6.

Regarding `Cn1c(N)nc2nc[nH]c2c1=S`, the survivor count (T/C endpoint: mean survival time, dose: 2.0 mg/kg/injection, schedule: Q01DX Z (ip), vehicle: carboxymethylcellulose (CMC)) was 1 of 6. The T/C (T/C endpoint: mean survival time, dose: 9.0 mg/kg/injection, schedule: Q01DX Z (ip), vehicle: methylcellulose (MC)) is 131 % of control; the T/C (T/C endpoint: mean survival time, dose: 40.0 mg/kg/injection, schedule: Q01DX009 (ip), vehicle: saline) was 138 % of control; the T/C (T/C endpoint: median survival time, dose: 10.0 mg/kg/injection, schedule: Q01DX009 (ip), vehicle: saline) is 125 % of control; the T/C (T/C endpoint: median survival time, dose: 40.0 mg/kg/injection, schedule: Q01DX009 (ip), vehicle: saline) is 125 % of control.

`C=CCCCCCCCCC(=O)O` (tested in a mixture with another compound): the survivor count is, setting by setting: (T/C endpoint: mean survival time, dose: 200.0 mg/kg/injection, schedule: Q01DX001 (ip), vehicle: carboxymethylcellulose (CMC)) 0 of 6; under setting [7], 0 of 6.

On to `COc1cc2cc[n+](C)cc2cc1OC`, for which the survivor count reads like this: (T/C endpoint: mean survival time, dose: 200.0 mg/kg/injection, schedule: Q01DX009 (ip), vehicle: saline) 0 of 6; under setting [6], 2 of 6.

As to `Nc1ccc(N=Nc2ccccc2)c(N)n1`, the survivor count is on record as 2 of 4 under setting [5], 1 of 6 under setting [2] and 0 of 4 under setting [6].

For `CCOC(=O)N1C(=O)NC(=O)C1c1ccc(Cl)cc1` (stereo not given), under setting [8], the survivor count is given as 1 of 4.

With `COc1cc(OC)c2c(=O)c3ccccc3[nH]c2c1`, the survivor count (T/C endpoint: mean survival time, dose: 200.0 mg/kg/injection, schedule: Q04DX003 (ip), vehicle: saline with Tween-80) is recorded as 6 of 6.

Take `CC(=O)OC(c1ccnc2ccccc12)C1CC2CCN1CC2` (stereo not given): the survivor count under setting [7] is 1 of 4.

For `CC1(C)N=C(N)N=C(N)N1c1cccc(CCCCc2cccc(NC(=O)CBr)c2)c1`, the survivor count is 1 of 4 under setting [9], 2 of 4 under setting [10], 0 of 4 under setting [11] and 0 of 4 under setting [8].

Turning to `O=C(COc1ccc([N+](=O)[O-])cc1Cl)Nc1ccccc1`, the survivor count is given as 6 of 6 (T/C endpoint: mean survival time, dose: 200.0 mg/kg/injection, schedule: Q01DX009 (ip), vehicle: acetone) and 6 of 6 (T/C endpoint: mean survival time, dose: 400.0 mg/kg/injection, schedule: Q01DX009 (ip), vehicle: acetone).

`CC(=O)NCc1cc2c3c(c1)CCCN3CCC2`: the survivor count under setting [4] was 4 of 6.

As to `CC(C)(N)Cc1ccc(Cl)cc1`, the survivor count under setting [6] is reported as 0 of 4.

For the molecule `N#CC(C#N)=Cc1ccc(O)cc1`, the survivor count runs as follows: under setting [10], 2 of 4; under setting [11], 0 of 4; under setting [8], 0 of 4.

Turning to `CCN(CC)CCCNc1ncnc2c1C(c1ccccc1)c1ccccc1-2` (stereo not given), under setting [9], the survivor count is recorded as 1 of 4.
